Here are results for 6 substances from patent US5480970A, “Metal chelators” (Resolution Pharmaceuticals, priority 1993, dated 1996).

The data set is described as follows: Labelling chelators with 99m Tc (Sep-Pak separation). The following applies: C-18 Sep-Pak, EtOH-saline (1:1) eluate. Type of data set: physicochemical.
With “(Pic-Ser-Cys(Acm)-Gly)-Thr-Lys-Pro-Pro-Arg-OH [RP-063, ID NO: 9]”, the “Chelator (EtOH-saline eluate); extent of complexation of 99m Tc by radioactivity of eluted fractions” value was 93% of total.
With “(Pic-Gly-Cys(Acm)-Gly)-ε-NH-Lys(-Asp-Gly-OH)-Lys-Tyr-Nleu-Phe-Leu- Nleu-for [RP-056, ID No. 13]” the figure was 78% of total; with “(Pic-Gly-Cys(Acm)-Gly)-εNH-Lys(-Gly-OH)-Tyr-Nleu-Phe-Leu-Nleu-for [RP-050, ID NO: 12]”, 63% of total.
The result for “(Pic-Gly-Cys-Gly)-εNH-Lys(-Gly-OH)-Tyr-Nleu-Phe-Leu-Nleu-for [RP-022, ID NO: 11]” reads 29% of total.
With “Pic-Gly-Cys(Acm)-Gly-OH [RP-049, ID NO: 8]” the figure was 92% of total; with “(Pic-Ser-Cys(Acm)-Gly)-Lys-Pro-Pro-Arg-OH [RP-065, ID NO: 10]”, 92% of total.
